In assay [1] the target is HSF1 (UniProt Q00613). Nature of the assay: DAPPL (digital affinity profiling via proximity ligation, sequencing). Particulars: 10 mM Tris-HCl pH 7.5, 50 mM NaCl, 1 mM DTT, 4% glycerol, room temperature, 30 min; GST-TFs on glutathione beads, 16-mer random dsDNA library, 0.1% …; high values mean tight binding; double strand, one strand shown; scale: fold enrichment (6-mer frequency, TF over GST control).

By UniProt entry, the sequences of proteins in these tests, tags left out. Where a name states a change or a piece, a line headed by the entry shows the natural chain unless it says otherwise.
UniProt Q00613: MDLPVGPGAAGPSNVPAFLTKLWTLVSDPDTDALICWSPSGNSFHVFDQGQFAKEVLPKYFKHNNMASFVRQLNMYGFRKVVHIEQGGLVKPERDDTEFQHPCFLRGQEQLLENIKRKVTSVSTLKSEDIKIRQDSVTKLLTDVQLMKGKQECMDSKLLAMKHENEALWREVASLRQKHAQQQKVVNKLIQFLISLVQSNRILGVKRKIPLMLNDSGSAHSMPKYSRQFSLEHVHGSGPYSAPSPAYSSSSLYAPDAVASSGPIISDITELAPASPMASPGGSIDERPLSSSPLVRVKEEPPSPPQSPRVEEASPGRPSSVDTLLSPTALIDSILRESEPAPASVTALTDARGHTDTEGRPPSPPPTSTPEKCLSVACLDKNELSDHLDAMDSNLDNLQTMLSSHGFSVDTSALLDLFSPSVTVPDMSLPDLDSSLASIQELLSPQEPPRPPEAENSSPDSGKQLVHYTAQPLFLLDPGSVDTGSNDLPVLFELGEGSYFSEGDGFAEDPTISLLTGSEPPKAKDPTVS

In assay [2] the target is T1, ELF2 (UniProt Q15723).
T1 sequence: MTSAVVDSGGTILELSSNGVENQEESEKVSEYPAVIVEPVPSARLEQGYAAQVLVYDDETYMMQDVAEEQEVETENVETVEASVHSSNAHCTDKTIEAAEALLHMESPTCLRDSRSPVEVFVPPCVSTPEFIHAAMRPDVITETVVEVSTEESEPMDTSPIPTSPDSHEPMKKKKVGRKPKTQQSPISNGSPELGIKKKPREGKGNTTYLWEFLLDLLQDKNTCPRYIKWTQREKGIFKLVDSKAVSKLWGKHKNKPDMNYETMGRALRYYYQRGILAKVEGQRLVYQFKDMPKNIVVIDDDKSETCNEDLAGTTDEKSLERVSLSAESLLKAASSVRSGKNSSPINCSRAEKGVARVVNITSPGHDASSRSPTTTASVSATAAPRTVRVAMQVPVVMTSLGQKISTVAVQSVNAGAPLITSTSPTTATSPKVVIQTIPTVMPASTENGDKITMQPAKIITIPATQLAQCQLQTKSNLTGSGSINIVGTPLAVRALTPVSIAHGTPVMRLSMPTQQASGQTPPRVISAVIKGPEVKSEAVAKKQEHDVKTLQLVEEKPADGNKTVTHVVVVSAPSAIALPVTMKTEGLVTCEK
The description is as above. Particulars: 10 mM Tris-HCl pH 7.5, 50 mM NaCl, 1 mM DTT, 4% glycerol, room temperature, 30 min; GST-TFs on glutathione beads, 16-mer random dsDNA library, 0.1% …; high values mean tight binding; double strand, one strand shown; scale: fold enrichment (6-mer frequency, TF over GST control).

Only a part is listed here, and it is no random draw. For part of these data: At the low end of the ranking the order means little. The list shows a part of the results. For part of these data: The source does not settle which construct or isoform was used.

As to TCATAT, the figures for the binding signal in assay [1] and in assay [2] were 1.15 and 1.21, respectively.
With ACTTGT, the binding signal is 1.12 in assay [1] and 1.2 in assay [2].
Consider CGAACT, for which the binding signal in assay [1] amounted to 1.48; in assay [2], 1.11.
As to GCCACC, the binding signal was determined as 0.676 in assay [1] and 0.848 in assay [2].
Regarding ACAAAT, the binding signal in assay [1] and in assay [2] was 1.17 each time.
As for TGCGAA, the binding signal in assay [1] came to 1.21; in assay [2], 1.14.

The values above are taken from paper PMC7862700.
